# Measurements reported in paper PMC5996148.
# By UniProt entry, the sequences of proteins in these tests, tags left out. Where a name states a change or a piece, a line headed by the entry shows the natural chain unless it says otherwise.
# UniProt P31941: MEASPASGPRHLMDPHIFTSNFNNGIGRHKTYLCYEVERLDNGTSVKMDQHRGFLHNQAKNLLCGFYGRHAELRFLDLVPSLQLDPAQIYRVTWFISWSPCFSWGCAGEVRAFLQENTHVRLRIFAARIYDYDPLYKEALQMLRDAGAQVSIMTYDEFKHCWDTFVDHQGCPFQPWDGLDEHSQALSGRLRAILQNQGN
# UniProt P05067, whole entry: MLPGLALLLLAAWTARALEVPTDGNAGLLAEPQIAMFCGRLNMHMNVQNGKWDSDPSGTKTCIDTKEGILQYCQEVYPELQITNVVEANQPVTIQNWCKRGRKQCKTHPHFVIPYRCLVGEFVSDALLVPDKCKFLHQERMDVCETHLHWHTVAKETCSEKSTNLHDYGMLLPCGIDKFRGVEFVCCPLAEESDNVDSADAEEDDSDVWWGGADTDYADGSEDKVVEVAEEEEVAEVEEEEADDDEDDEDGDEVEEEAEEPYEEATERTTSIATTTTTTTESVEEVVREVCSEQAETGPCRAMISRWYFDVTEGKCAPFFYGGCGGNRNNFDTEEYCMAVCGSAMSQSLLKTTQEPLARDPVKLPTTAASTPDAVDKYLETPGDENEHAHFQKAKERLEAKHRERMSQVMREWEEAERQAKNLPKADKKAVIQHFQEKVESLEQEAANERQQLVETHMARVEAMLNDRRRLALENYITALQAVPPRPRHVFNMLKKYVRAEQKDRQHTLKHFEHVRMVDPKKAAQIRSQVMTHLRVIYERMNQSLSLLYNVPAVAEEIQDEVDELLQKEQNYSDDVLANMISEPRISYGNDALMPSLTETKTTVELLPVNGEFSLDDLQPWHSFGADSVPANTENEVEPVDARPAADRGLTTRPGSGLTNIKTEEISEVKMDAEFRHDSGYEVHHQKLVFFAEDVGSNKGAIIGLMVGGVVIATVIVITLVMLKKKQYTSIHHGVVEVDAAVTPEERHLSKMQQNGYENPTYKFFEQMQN
# Values joined by “and” are separate entries in the source; they are usually repeats but may differ in a detail not shown here. Equal values may be shown once. The list shows a part of the results. For some assays here: The exact form of the protein is not confirmed.
# Tests used:
# Assay in all cases: protein microarray (ProtoArray v5.0), streptavidin-Alexa Fluor 647
# Conditions in all cases: 3'-biotin; 20 mM Tris (pH 7.5), 5 mM MgCl2, 100 mM KCl, 0.1% Tween-20, A/T-rich and random oligonucleotide blockers; temperature not stated; high values mean tight binding
# APBB1IP = molecular target: T1, APBB1IP (UniProt Q7Z5R6)
# T1 sequence: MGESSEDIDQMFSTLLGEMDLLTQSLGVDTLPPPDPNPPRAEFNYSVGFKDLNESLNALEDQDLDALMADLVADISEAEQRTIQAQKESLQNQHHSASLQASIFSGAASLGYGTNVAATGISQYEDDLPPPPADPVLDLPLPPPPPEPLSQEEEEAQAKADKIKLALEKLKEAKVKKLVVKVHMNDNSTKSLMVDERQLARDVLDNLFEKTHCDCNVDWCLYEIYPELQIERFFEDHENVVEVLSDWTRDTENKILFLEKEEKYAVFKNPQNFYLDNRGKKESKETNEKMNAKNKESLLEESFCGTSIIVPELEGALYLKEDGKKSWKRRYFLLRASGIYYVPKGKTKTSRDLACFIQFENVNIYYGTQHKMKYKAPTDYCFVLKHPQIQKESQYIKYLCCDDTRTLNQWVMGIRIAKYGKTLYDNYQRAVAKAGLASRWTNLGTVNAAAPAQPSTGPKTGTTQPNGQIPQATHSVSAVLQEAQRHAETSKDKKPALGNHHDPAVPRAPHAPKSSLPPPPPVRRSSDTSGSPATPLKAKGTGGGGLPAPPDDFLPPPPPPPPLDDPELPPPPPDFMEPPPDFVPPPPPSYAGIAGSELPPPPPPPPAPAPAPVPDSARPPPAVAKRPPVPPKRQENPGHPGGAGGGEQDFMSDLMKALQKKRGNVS
# APIP (human) = tested on: APIP (human)
# APITD1 (human) = tested on: APITD1 (human)
# APOA1 (human) = tested on: APOA1 (human)
# APOA2 (human) = tested on: APOA2 (human)
# APOBEC3A = APOBEC3A (UniProt P31941)
# APOBEC3C = molecular target: T2, APOBEC3C (UniProt Q9NRW3)
# T2 sequence: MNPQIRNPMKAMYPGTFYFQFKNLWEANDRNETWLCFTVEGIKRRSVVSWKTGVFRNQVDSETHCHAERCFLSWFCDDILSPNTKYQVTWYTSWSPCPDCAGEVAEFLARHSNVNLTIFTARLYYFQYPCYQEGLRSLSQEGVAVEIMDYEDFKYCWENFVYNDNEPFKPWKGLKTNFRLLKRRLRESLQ
# APOC2 (human) = tested on: APOC2 (human)
# APOH (human) = tested on: APOH (human)
# APP = APP (UniProt P05067)
# APPL2 (human) = tested on: APPL2 (human)
# AQP5 (human) = tested on: AQP5 (human)
# AQP8 = molecular target: T3, AQP8 (UniProt O94778)
# T3 sequence: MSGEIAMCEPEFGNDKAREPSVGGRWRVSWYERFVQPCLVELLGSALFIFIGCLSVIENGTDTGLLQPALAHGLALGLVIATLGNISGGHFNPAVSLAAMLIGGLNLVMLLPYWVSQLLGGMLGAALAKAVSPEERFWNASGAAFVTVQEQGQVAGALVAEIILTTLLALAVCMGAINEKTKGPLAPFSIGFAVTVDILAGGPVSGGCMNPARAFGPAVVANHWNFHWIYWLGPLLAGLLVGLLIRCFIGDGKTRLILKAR
# ARF4 (human) = tested on: ARF4 (human)
# ARF5 (human) = tested on: ARF5 (human)
# ARFIP2 (human) = tested on: ARFIP2 (human)
# ARHGDIB (human) = tested on: ARHGDIB (human)
# ARID3B (human) = tested on: ARID3B (human)
# ARL1 (human) = tested on: ARL1 (human)
# ARL3 (human) = tested on: ARL3 (human)
sequence,measurement,setting,value
GGTGACAGGGGTATGGGGAGGGG [G4-2 biotinylated (Ct1)],binding signal,APBB1IP,-0.389 z-score
same,binding signal,APIP (human),-0.38 z-score and -0.378 z-score
same,binding signal,APITD1 (human),-0.389 z-score
same,binding signal,APOA1 (human),-0.404 z-score
same,binding signal,APOA2 (human),-0.396 z-score
same,binding signal,APOBEC3A,-0.385 z-score
same,binding signal,APOBEC3C,3.46 z-score
same,binding signal,APOC2 (human),-0.378 z-score
same,binding signal,APOH (human),-0.385 z-score
same,binding signal,APP,-0.37 z-score
same,binding signal,APPL2 (human),-0.376 z-score
same,binding signal,AQP5 (human),-0.39 z-score
same,binding signal,AQP8,-0.392 z-score
same,binding signal,ARF4 (human),-0.391 z-score
same,binding signal,ARF5 (human),-0.385 z-score
same,binding signal,ARFIP2 (human),-0.397 z-score
same,binding signal,ARHGDIB (human),-0.381 z-score
same,binding signal,ARID3B (human),-0.39 z-score
same,binding signal,ARL1 (human),-0.365 z-score
same,binding signal,ARL3 (human),-0.376 z-score

# A second format for some results above:
sequence	measurement	setting	value
GGTGACAGGGGTATGGGGAGGGG [G4-2 biotinylated (Ct1)]	binding signal	APOA2 (human)	-0.396 z-score
same	binding signal	APOBEC3A	-0.385 z-score
same	binding signal	APOBEC3C	3.46 z-score
same	binding signal	APOC2 (human)	-0.378 z-score
same	binding signal	APOH (human)	-0.385 z-score
